PubChem BioAssay AID1508597 | Cure First | 2020

Assay: 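Genes whose silencing sensitises or protects ovarian cancer cells against rucaparib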 (primary screen)
Cells: human ovarian carcinoma lines grown from tumours: OCI-P5x (papillary serous) and OCI-C5x (clear cell)
Knock-down reagent: siRNA pool against human genes, 1.25 pmol siRNA per well
Time to read-out: 72 h or 96 h, depending on the cell culture
Treatment: rucaparib 20 µM (about IC30) or vehicle, present until read-out
Rucaparib or vehicle: Rucaparib
Cell line: OCI-C5x (clear cell)
Detection: 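Luminescent ATP-based viability assay read 72 or 96 h after transfection, depending on culture, given as normalised percent viability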
Direction: viability, normalised: higher = more viable cells remaining
Hit rule: 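Active when normalised viability falls below 80 percent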
Calls: active = viability under 80%; inactive = viability 80% or more
Shown is a random part of the about 2,100 reagents, under one of the conditions tested. 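Calls flag viability under 80% in either arm, not effects specific to rucaparib; the reference for percent is not stated.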 Entries without a mark were called inactive. Some reagents were tested in more than one well and are listed for each. No sequences are given here. Not given: the 100% reference.

Gene	technical replicate	viability, normalised (%)
LRRK2	1	68.8 (active)
LRRK2	2	53.7 (active)
LRRK2	3	65.4 (active)
GCKR	1	26.5 (active)
GCKR	2	14.3 (active)
GCKR	3	17.7 (active)
PALS1	1	56.8 (active)
PALS1	2	56.4 (active)
PALS1	3	74.2 (active)

Sorted by “viability, normalised (%)” (high to low): some entries from above.
Gene	technical replicate	viability, normalised (%)
GCKR	1	26.5 (active)
GCKR	2	14.3 (active)

The list goes on.
Gene	technical replicate	viability, normalised (%)
PDE3A	1	69.1 (active)
PDE3A	2	41.8 (active)
PDE3A	3	62.1 (active)
RPS6KA1	1	36.5 (active)
RPS6KA1	2	59 (active)
RPS6KA1	3	64.1 (active)
WNK1	1	55 (active)
WNK1	1	63.7 (active)
WNK1	2	40.6 (active)
WNK1	2	61.7 (active)
WNK1	3	62.4 (active)
WNK1	3	34.8 (active)
CDKN2A	1	33.9 (active)
CDKN2A	2	37 (active)
CDKN2A	3	34.6 (active)
